Laboratory results taken from patent publication US5698141A, “Photochromic heterocyclic fused indenonaphthopyrans” (PPG Industries, Inc., priority 1997, dated 1997).

Columns and labels:
[1] = Lambda max (visible) of the activated form in a diethylene glycol bis(allyl carbonate) composition; conditions: wavelength of maximum absorption of the activated (colored) form in a diethylene glycol bis(allyl carbonate) composition
[2] = Photochromic response on an optical bench (sensitivity, ΔOD at saturation, bleach rate) of polymer test squares; conditions: for ΔOD@ SATURATION: UV exposure continued for 20 minutes; for ΔOD@ SATURATION / ΔOD/MIN SENSITIVITY: 1.5 times 10^-3 molal in polymer test square, 75° F. (23.9° C.); for ΔOD/MIN SENSITIVITY: first five seconds of UV exposure, expressed per minute; for Bleach Rate (T1/2): time for absorbance of activated form to reach one half the highest absorbance at room temperature (75° F., 23.9° C.) after removal of activating light

CCC1(O)c2ccccc2-c2c1c1c(c3c2ccc2oc4ccccc4c23)OC(c2ccc(OC)cc2)(c2ccc(OC)cc2)C=C1 (stereo not drawn) [Example 1, 3,3-di(4-methoxyphenyl)-16-hydroxy-16-ethyl-16H-benzofuro[2',3':7,8]indeno[2',3':3,4]naphtho[1,2-b]pyran]
LAMBDA MAX (VISIBLE) [1]: 597 nm
ΔOD@ SATURATION [2]: 0.12
ΔOD/MIN SENSITIVITY [2]: 0.25 ΔOD/MIN
Bleach Rate (T1/2) [2]: 23 s

CCC1(O)c2c3c(c4ccccc4c2-c2ccc4oc5ccccc5c4c21)OC(c1ccc(OC)cc1)(c1ccc(OC)cc1)C=C3 (stereo not drawn) [Example 3, 3,3-di(4-methoxyphenyl)-16-hydroxy-16-ethyl-16H-benzofuro [2",3":6',7']indeno [3',2':4,3]naphtho [1,2-b]pyran]
LAMBDA MAX (VISIBLE) [1]: 580 nm
ΔOD@ SATURATION [2]: 0.21
ΔOD/MIN SENSITIVITY [2]: 0.20 ΔOD/MIN
Bleach Rate (T1/2) [2]: 48 s

COc1ccc(C2(c3ccc(OC)cc3)C=Cc3c4c(c5ccccc5c3O2)-c2ccc3oc5ccccc5c3c2C4O)cc1 (stereo not drawn) [Example 2, 3,3-di(4-methoxyphenyl)-16-hydroxy-16H-benzofuro[2",3":6',7']indeno[3',2':4,3]naphtho[1,2-b]pyran]
LAMBDA MAX (VISIBLE) [1]: 574 nm
ΔOD@ SATURATION [2]: 0.26
ΔOD/MIN SENSITIVITY [2]: 0.19 ΔOD/MIN
Bleach Rate (T1/2) [2]: 70 s
